From doi:10.1101/2020.01.24.918458 come the findings set out here.

Protein sequences, listed by entry. Tags and fused reporters are not part of them.
UniProt Q99JW4: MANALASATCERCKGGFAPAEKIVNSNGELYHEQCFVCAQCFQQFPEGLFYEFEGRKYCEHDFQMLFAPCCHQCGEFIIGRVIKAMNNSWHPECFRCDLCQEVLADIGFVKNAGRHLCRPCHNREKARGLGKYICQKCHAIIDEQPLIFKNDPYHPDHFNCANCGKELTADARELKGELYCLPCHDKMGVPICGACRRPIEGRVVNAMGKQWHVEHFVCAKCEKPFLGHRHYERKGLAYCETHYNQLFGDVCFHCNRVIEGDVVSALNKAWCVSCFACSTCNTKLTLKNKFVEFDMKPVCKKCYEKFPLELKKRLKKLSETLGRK

Assay in all cases: proximity labelling
The target of experiment [1] is PINCH (not stated (mouse and non-mouse baits used)) (UniProt Q99JW4).
Experiment [2] addresses T1, ILK (not stated (mouse and non-mouse baits used)) (UniProt O55222).
T1 sequence: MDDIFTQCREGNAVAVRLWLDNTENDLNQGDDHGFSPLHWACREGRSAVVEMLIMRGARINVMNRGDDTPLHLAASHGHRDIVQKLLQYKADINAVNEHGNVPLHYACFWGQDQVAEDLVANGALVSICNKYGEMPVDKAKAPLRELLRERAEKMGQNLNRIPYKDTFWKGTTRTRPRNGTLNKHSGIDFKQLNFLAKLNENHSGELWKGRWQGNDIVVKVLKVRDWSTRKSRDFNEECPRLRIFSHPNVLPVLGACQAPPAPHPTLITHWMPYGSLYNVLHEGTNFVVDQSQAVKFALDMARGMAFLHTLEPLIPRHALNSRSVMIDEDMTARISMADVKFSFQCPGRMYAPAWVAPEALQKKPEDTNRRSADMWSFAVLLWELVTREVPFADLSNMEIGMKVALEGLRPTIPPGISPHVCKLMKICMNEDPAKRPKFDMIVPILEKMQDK

Experiment [3] concerns the target T2, α-parvin (not stated (mouse and non-mouse baits used)) (UniProt Q9EPC1).
T2 sequence: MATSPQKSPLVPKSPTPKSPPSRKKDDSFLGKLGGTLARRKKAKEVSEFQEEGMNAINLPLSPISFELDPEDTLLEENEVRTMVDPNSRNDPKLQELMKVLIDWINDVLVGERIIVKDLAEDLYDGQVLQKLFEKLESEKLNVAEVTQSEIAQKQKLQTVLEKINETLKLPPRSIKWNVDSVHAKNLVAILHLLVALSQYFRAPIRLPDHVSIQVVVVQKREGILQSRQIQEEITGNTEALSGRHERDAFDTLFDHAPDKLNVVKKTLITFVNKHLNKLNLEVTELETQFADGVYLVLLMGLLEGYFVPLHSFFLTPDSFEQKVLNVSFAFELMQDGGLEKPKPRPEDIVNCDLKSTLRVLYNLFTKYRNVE

No constants are given. Whether binding was seen depends on the method and setting. Binding seen in cells or lysates may run through a third protein. These calls come from enrichment with a bait or labelling near it, and not all partners need be listed. A no says only that the protein was not detected with the bait.

B1: α-parvin (protein, UniProt Q9EPC1 1-372)
chain: T2 sequence
Take B1: the binding entry in experiment [1] and in experiment [2] was “binds” each time.

B2: liprin-β1 (protein, UniProt Q8C8U0 1-969)
chain: MMSDASDMLAAALEQMDGIIAGSKALEYSNGIFDCQSPTSPFMGSLRALHLVEDLRGLLEMMETDEKEGLRCQIPDSTAEVLIEWLQNQMTNGHLPGNGDVYQERLARLENDKESLVLQVSVLTDQVEAQGEKIRDLEFCLEEHREKLNATEEMLQQELLSRTSLETQKLELMAEISNLKLKLTAVEKDRLDYEDRFRDTEGLIQEINDLRLKVNEMDGERLQYEKKLKSTKDELASLKEQLEEKECEVKRLQERLVCKAKGEGIEVLDRDIEVQKMKKAVESLMAANEEKERKIEDLRQCLSRYRKMQDPAVLAQGQDSECEGLFHSSSISTLLDAQGFSDLERSTSSTPGMGSPSRDLLHTSAPEEFHTSVLQASIPSLLPPSVDVDTCEKPKLPTKPETSFEEGDGRAILGAAAEVSLSDGVSTSSLQKSSSLGNLKKEASDGTDKAPTDSRTFGTLPPKVPGHEASVDDNPFGTRKARSSFGRGFFKIKSGKRTASAPNLAETEKETAEHLNLAGTSRSKGSQGTSPFPMSPPSPDSRKKSRGIMRLFGKLRRSQSTTFNPDDMSEPEFKRGGTRATAGPRLGWSRDLGQSNSDLDMPFAKWTKEQVCSWLAEQGLGSYLSSGKHWIISGQTLLQASQQDLEKELGIKHSLHRKKLQLALQALGSEEETNYGKLDFNWVTRWLDDIGLPQYKTQFDEGRVDGRMLHYMTVDDLLSLKVVSVLHHLSIKRAIQVLRINNFEPNCLRRRPSDENSITPSEVQQWTNHRVMEWLRSVDLAEYAPNLRGSGVHGGLMVLEPRFNVETMAQLLNIPPNKTLLRRHLATHFNLLIGAEAQHQKRDAMELPDYVLLTATAKVKPKKLTFSNFGNLRKKKHEDGEEYVCPMELGQASGSSQKGFRPGLDMRLYEEDDLDRLEQMEDSEGTVRQIGAFSEGINNLTHMLKEDDMFKDFAARSPSASITDEDSNV
For B2, the binding result in experiment [3] was “binds”.

B3: GIT1 (protein, UniProt Q68FF6 1-770)
chain: MSRKGPRAEVCADCSAPDPGWASISRGVLVCDECCSVHRSLGRHISIVKHLRHSAWPPTLLQMVHTLASNGANSIWEHSLLDPAQVQSGRRKANPQDKVHPIKSEFIRAKYQMLAFVHKLPCRDDDGVTAKDLSKQLHSSVRTGNLETCLRLLSLGAQANFFHPEKGTTPLHVAAKAGQTLQAELLVVYGADPGSPDVNGRTPIDYARQAGHHELAERLVECQYELTDRLAFYLCGRKPDHKNGHYIIPQMADRSRQKCMSQSLDLSELAKAAKKKLQALSNRLFEELAMDVYDEVDRRENDAVWLATQNHSTLVTERSAVPFLPVNPEYSATRNQGRQKLARFNAREFATLIIDILSEAKRRQQGKSLSSPTDNLELSARSQSELDDQHDYDSVASDEDTDQEPLPSAGATRNNRARSMDSSDLSDGAVTLQEYLELKKALATSEAKVQQLMKVNSSLSDELRRLQREIHKLQAENLQLRQPPGPVPPPSLPSERAEHTLMGPGGSTHRRDRQAFSMYEPGSALKPFGGTPGDELATRLQPFHSTELEDDAIYSVHVPAGLYRIRKGVSASSVPFTPSSPLLSCSQEGSRHASKLSRHGSGADSDYENTQSGDPLLGLEGKRFLELSKEDELHPELESLDGDLDPGLPSTEDVILKTEQVTKNIQELLRAAQEFKHDSFVPCSEKIHLAVTEMASLFPKRPALEPVRSSLRLLNASAYRLQSECRKTVPPEPGAPVDFQLLTQQVIQCAYDIAKAAKQLVTITTREKKQ
B3: the binding result in experiment [1], in experiment [2] and in experiment [3] was “no binding” each time.
